The target of the assay is Myc-tagged LRRK2 (leucine-rich repeat kinase 2), wild-type (UniProt Q5S007). The experiment in a line: co-IP; HEK-293 co-transfected with myc-LRRK2 and V5-Rab; lysate (50 mM Tris-HCl pH 7.5, 0.5% TX-100, 150 mM NaCl, 0.5 mM EGTA) immunoprecipitated with anti-myc on protein-G-agarose overnight at 4°C; blotted with anti-V5.

By UniProt entry, the sequences of proteins in these tests, tags left out.
UniProt Q5S007: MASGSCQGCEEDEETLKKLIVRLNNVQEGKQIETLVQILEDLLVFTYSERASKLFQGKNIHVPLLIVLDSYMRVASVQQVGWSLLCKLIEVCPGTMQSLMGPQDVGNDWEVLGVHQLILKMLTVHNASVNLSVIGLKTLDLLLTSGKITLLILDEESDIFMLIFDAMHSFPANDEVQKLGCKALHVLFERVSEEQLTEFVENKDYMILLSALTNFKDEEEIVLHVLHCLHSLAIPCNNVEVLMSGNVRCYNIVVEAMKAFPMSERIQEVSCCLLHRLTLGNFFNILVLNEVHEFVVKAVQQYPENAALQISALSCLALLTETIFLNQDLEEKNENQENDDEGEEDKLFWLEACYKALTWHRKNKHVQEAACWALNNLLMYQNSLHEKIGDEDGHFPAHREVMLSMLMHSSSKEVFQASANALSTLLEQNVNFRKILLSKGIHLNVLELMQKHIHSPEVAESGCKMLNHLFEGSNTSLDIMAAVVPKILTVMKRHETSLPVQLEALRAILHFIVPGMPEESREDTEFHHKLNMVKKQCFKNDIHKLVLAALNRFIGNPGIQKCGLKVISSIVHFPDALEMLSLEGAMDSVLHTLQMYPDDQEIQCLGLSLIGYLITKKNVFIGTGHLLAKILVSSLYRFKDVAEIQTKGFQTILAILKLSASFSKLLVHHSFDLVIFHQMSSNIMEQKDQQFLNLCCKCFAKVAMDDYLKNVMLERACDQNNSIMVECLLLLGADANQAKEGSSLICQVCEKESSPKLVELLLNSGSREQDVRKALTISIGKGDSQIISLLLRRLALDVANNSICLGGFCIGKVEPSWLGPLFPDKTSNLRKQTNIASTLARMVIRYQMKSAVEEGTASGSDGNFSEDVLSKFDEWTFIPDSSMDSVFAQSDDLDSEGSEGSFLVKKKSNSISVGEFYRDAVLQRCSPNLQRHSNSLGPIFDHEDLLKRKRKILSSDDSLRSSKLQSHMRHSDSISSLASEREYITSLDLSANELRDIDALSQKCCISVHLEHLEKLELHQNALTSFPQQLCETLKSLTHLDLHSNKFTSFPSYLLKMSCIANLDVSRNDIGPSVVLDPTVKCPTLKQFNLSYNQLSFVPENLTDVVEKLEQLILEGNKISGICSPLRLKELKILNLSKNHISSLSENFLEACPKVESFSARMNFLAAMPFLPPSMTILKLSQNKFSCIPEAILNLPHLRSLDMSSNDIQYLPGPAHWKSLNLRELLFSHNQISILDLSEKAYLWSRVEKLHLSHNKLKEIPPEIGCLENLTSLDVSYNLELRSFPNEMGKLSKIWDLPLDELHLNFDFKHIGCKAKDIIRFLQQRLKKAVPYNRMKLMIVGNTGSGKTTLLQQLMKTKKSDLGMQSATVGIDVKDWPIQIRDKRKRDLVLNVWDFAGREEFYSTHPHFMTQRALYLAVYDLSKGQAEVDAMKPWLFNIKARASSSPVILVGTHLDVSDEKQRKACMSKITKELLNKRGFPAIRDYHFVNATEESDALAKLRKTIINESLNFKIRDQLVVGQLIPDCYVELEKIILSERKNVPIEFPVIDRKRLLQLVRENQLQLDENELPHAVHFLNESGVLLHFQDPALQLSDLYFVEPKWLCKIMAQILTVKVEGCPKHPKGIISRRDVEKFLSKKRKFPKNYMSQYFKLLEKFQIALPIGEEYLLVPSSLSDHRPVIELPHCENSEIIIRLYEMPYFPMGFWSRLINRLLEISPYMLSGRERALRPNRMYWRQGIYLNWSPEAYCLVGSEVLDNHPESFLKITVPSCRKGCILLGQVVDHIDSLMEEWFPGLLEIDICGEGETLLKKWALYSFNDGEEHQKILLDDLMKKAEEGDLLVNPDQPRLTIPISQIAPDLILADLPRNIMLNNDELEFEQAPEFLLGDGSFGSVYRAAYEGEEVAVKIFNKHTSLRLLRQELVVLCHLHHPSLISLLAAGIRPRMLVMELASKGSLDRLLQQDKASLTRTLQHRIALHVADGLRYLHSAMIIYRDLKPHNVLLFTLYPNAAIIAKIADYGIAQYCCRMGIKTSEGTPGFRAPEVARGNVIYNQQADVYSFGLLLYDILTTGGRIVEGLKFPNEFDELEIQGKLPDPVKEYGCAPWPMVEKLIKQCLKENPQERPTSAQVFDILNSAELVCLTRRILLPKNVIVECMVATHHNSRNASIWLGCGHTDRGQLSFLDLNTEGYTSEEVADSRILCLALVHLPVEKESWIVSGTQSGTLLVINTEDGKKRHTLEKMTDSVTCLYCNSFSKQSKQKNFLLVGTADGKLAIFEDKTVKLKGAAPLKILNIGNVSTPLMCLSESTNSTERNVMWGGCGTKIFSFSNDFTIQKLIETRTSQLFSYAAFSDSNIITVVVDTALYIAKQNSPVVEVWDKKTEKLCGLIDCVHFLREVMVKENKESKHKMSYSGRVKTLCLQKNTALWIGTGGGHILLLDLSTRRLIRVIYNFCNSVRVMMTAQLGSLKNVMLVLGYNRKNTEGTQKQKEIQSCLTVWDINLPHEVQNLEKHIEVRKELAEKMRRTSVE

No constants are given. Whether binding was seen depends on the method and setting. In cells and extracts the contact can be indirect. Some results given as binding are weak or reduced against the parent protein; the word gives no strength. Tags and fused reporters may be left off the sequences shown.

B1: V5-tagged Rab3c (protein, UniProt Q96E17 1-227)
chain: MRHEAPMQMASAQDARYGQKDSSDQNFDYMFKLLIIGNSSVGKTSFLFRYADDSFTSAFVSTVGIDFKVKTVFKNEKRIKLQIWDTAGQERYRTITTAYYRGAMGFILMYDITNEESFNAVQDWSTQIKTYSWDNAQVILVGNKCDMEDERVISTERGQHLGEQLGFEFFETSAKDNINVKQTFERLVDIICDKMSESLETDPAITAAKQNTRLKETPPPPQPNCAC
For the molecule B1, the binding entry is on record as “binds”.
